Assay results published in patent US12331302B2, “Fungal autoinducible expression system” (priority 2019, dated 2025).
For at least one compound, name, drawing or mass did not settle the structure.

Test system: pTETO3-BAR1 control module in strain JL275
Test: Functionality of doxycycline-inducible BAR1 expression (supernatant/α-factor mix)
Assay type: cell-based, Saccharomyces cerevisiae
Settings: 5 μg/mL doxycycline; JL275 with pFUS1J2-ubiM-Cre pTDH3-rtTA pTETO3-BAR1
Method: The functionality of Bar1 expression is investigated by transforming JL275 with pFUS1J2-ubiM-Cre pTDH3-rtTA pTETO3-BAR1 or control plasmid pFUS1-Cre. Both strains are inoculated in media with or without 5 μg/mL doxycycline, and are grown to stationary phase where after they are spun down. 0.5 mL supernatant is mixed with 0.5 mL 600 μM α-factor and incubated at 30° C. for 4 h. A corresponding amount of 5 μM α-factor (assuming no α-factor has been degraded) from each supernatant/α-factor incubation mix is used to induce cultures of JL275 with pFUS1J2-ubiM-Cre and pTEF1-loxP-GFP-loxP-mCherry (FIG. 4A). 0 and 5 μM α-factor are used as controls.

In the case of `C[C@H]1c2cccc(O)c2C(=O)C2=C(O)[C@]3(O)C(=O)C(C(N)=O)=C(O)[C@@H](N(C)C)[C@@H]3[C@@H](O)[C@@H]21` [doxycycline], the “Induction of Bar1 production” value is reported as “induces Bar1 production”.
